# Screening data, single-dose tests

By UniProt entry, the sequences of proteins in these tests, tags left out. Residues count along the entry.
UniProt I6X8D2, whole entry: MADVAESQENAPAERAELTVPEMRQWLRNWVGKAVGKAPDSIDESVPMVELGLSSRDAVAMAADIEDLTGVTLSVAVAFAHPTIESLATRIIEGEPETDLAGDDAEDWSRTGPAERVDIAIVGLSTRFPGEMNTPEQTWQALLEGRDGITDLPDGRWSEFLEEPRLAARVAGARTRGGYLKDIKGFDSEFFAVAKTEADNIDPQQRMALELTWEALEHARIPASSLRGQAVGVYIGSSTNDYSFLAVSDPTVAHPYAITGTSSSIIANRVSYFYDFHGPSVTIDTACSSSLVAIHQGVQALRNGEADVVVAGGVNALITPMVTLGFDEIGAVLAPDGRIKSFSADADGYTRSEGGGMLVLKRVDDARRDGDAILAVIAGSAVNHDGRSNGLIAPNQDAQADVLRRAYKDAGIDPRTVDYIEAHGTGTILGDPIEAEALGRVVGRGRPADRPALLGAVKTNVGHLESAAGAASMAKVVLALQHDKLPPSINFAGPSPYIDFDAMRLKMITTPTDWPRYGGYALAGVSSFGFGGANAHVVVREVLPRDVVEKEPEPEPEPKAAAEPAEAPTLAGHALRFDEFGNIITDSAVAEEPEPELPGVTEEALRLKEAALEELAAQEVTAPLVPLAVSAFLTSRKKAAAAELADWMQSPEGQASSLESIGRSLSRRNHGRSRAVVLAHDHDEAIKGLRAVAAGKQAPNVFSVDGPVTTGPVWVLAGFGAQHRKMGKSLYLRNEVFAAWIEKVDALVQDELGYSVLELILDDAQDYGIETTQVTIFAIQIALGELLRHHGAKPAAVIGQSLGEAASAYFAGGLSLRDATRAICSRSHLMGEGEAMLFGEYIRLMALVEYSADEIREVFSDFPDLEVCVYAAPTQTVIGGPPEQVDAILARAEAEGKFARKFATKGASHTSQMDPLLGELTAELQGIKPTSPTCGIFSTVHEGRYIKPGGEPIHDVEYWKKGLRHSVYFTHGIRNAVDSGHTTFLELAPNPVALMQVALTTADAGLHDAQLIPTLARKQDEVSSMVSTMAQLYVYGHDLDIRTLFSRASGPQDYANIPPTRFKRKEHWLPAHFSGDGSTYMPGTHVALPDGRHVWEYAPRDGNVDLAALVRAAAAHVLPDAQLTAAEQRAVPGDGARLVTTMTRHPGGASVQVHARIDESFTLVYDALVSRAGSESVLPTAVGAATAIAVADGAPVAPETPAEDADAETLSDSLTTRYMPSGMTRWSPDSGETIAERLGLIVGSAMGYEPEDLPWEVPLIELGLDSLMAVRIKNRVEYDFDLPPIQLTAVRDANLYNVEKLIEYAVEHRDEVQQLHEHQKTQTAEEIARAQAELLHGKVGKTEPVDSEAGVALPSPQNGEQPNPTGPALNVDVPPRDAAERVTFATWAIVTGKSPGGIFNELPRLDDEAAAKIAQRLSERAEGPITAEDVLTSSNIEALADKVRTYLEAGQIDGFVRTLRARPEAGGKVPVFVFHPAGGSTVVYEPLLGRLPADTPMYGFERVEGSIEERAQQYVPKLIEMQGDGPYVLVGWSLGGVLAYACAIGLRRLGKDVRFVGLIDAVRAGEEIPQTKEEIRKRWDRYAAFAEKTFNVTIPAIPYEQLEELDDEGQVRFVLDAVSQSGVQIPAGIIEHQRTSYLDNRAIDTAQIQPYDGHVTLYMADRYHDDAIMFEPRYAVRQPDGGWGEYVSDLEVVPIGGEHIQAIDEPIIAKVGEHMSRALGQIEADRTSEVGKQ
UniProt Q8IDJ8, 1-583: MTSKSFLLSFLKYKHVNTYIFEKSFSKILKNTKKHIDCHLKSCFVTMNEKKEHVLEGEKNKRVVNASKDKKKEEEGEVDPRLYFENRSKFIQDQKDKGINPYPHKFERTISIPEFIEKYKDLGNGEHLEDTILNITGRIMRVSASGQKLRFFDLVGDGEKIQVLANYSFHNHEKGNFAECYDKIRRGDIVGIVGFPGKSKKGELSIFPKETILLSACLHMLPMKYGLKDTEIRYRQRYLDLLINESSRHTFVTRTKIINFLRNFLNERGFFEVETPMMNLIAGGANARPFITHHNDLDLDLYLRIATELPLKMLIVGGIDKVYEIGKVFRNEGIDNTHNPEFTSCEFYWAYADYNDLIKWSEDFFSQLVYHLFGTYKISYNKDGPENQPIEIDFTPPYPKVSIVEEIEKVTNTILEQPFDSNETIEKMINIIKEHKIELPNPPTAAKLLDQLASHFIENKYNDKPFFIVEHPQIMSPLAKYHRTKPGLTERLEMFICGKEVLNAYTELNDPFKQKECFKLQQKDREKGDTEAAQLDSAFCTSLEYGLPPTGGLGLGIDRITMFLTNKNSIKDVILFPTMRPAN
UniProt A4I591, 1-473: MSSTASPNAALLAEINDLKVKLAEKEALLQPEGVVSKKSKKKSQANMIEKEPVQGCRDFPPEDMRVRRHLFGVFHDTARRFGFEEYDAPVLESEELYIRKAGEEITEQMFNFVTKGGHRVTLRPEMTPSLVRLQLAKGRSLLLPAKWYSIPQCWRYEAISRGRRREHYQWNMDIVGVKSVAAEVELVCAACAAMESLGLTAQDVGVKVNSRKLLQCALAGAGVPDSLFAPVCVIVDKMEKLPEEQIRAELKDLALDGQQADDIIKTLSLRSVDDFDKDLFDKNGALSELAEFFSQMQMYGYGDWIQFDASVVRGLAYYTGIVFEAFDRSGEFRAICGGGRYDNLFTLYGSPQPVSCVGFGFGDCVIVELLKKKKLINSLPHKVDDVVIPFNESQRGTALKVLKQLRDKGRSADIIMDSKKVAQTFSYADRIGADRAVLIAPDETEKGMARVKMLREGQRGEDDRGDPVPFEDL
UniProt P9WFT3, whole entry: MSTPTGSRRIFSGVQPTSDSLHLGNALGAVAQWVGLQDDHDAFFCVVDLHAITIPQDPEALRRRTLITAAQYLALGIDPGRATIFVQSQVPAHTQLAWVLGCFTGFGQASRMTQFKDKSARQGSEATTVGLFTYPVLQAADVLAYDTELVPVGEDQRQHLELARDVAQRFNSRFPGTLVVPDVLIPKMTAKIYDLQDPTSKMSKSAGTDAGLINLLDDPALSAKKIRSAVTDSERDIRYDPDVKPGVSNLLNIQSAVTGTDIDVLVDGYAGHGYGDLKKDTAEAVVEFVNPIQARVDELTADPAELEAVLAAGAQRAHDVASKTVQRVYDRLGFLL

Pks13 thioesterase: 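Enzyme assay of the thioesterase domain of polyketide synthase 13; the read-out is not stated. Target: Polyketide synthase Pks13, Mycobacterium tuberculosis (UniProt I6X8D2). Compounds at 30 µM. Higher reads as stronger inhibition (inferred from which compounds were picked for retests). Of about 67,000 compounds tested this way, about 300 (0.46%) reached 50% or more in at least one test.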
PfKRS1: 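Enzyme assay of the cytosolic lysyl-tRNA synthetase in 384-well plates, read by luminescence. Target: Lysine-tRNA ligase, Plasmodium falciparum 3D7 (UniProt Q8IDJ8). Concentration: 30 µM. Direction is inferred from only a few compounds that gave an IC50; most scored high, so higher reads as stronger inhibition. About 69,000 compounds were tested under these conditions; 0.071% (about 49) showed 50% or more at least once.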
LiHisRS: 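Histidine-tRNA ligase, Leishmania infantum (UniProt A4I591). Enzyme assay of histidyl-tRNA synthetase; the read-out is not stated. Concentration: 30 µM. The record gives no direction; compounds that gave an IC50 in retests scored well above the rest, so higher reads as stronger inhibition. The assay is labelled LdHisRS but filed under L. infantum. Size under these conditions: about 69,000 compounds, about 410 of them at 50% or above in at least one test.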
MtTrpRS: 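Enzyme assay of tryptophanyl-tRNA synthetase; the read-out is not stated. Target: Tryptophan-tRNA ligase, Mycobacterium tuberculosis (UniProt P9WFT3). Tested at 10 µM. Higher most likely means stronger inhibition; the record gives no direction and few retests gave an IC50. About 65,000 compounds were tested under these conditions; 0.098% (about 64) showed 50% or more at least once.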

Values are the deposited “Percent Effect”, in %. The record does not define 0% and 100%; most values in the screen are far below 50% and negative numbers occur (in some assays of this library far below -100). This is an unselected part of the compounds tested.

Result for Cc1ccc(NS(=O)(=O)c2ccc(C#N)cc2)c(CN(C)C)c1 was Pks13 thioesterase: -17.52%; PfKRS1: 0.05457%; LiHisRS: 13.7%; MtTrpRS: -1.338%. CCS(=O)(=O)NCCNc1c(C#N)cnc2c(F)cc(F)cc12 read Pks13 thioesterase: 6.948%; PfKRS1: 2.429%; LiHisRS: 22.37%; MtTrpRS: 0.09139%. With O=C(c1ccsc1)N1C[C@H]2CCC[C@@]2(COCc2cccnc2)C1 the screen gave Pks13 thioesterase: -7.277%; PfKRS1: 4.086%; LiHisRS: 13.27%; MtTrpRS: -3.769%. Cc1noc(C)c1CN1CCCC(CN(C(=O)OC(C)(C)C)C(C)C)C1 (stereo not drawn) read Pks13 thioesterase: 31.3%; PfKRS1: 3.461%; LiHisRS: -6.667%; MtTrpRS: -5.57%. With O=C(c1ccccc1-c1ccccc1)N1CCOC2(CNCCOC2)C1 (stereo not drawn) the screen gave Pks13 thioesterase: -11.08%; PfKRS1: 1.642%; LiHisRS: 23.08%; MtTrpRS: -2.09%. COc1ccccc1N1CCCC(Nc2ncccn2)C1=O (stereo not drawn) gave PfKRS1: 5.157%; LiHisRS: 14.29%; MtTrpRS: 0.9166%.

COc1cc(N2CC[C@H](O)[C@@H]2Cc2ccccc2)ncn1 gave Pks13 thioesterase: 2.943%; PfKRS1: -0.9968%; LiHisRS: 6.422%; MtTrpRS: -5.424%. Result for COCCN1C(=O)[C@H]2CC[C@@H]1CN(S(=O)(=O)c1ccc(C#N)cc1)C2 was Pks13 thioesterase: -11.52%; PfKRS1: 8.801%; LiHisRS: 19.47%; MtTrpRS: 3.265%. Result for COCCN1CCC(CN(Cc2ccncc2)C2CCC2)CC1 was Pks13 thioesterase: -23.57%; PfKRS1: -0.513%; LiHisRS: 5.479%; MtTrpRS: -0.2974%. For O=C(c1ccncc1F)N1CCCC1c1nc(-c2ccccc2)n[nH]1 (stereo not drawn) the result was PfKRS1: 0.5366%; LiHisRS: 0%; MtTrpRS: -1.538%. CC(NC(C)(C)CN)c1ccccc1 (stereo not drawn) gave Pks13 thioesterase: -4.242%; PfKRS1: 2.429%; LiHisRS: 27.63%; MtTrpRS: 0.2742%. O=S(=O)(c1ccc(F)cc1F)N1CCCCC1c1nnc2n1CCCC2 (stereo not drawn) read Pks13 thioesterase: -2.123%; PfKRS1: -0.325%; LiHisRS: 10.26%; MtTrpRS: -1.242%.

FC(F)(F)COCCN1CCCC(c2noc(C3CC3)n2)C1 (stereo not drawn) read Pks13 thioesterase: -24.16%; PfKRS1: 0.5562%; LiHisRS: 18.45%; MtTrpRS: -3.375%. Result for Cn1nc(CN2CCCC2)c2c1CN(c1cnccn1)CC2 was Pks13 thioesterase: 4.792%; PfKRS1: 2.227%; LiHisRS: 2.703%. CCC(=O)Nc1nnc(CCOc2ccccc2OC)s1 gave Pks13 thioesterase: -15.06%; PfKRS1: 2.606%; LiHisRS: 12.07%; MtTrpRS: -0.5181%. CC(C)c1nn(C)c(N(C)C)c1CNCc1cccc2cccnc12 read Pks13 thioesterase: -17.21%; PfKRS1: 2.041%; LiHisRS: 22.02%; MtTrpRS: -0.208%. O=C(NCC1(O)CCC1)c1c(O)cc(Cl)cc1Cl read Pks13 thioesterase: 4.213%; PfKRS1: 9.555%; LiHisRS: 10.87%; MtTrpRS: 3.055%. CCC(C)Oc1ccc(CNCCNC(C)=O)cc1OC (stereo not drawn) read Pks13 thioesterase: 3.809%; PfKRS1: 1.642%; LiHisRS: 22.35%; MtTrpRS: 6.662%.

Result for Cc1ccc(CCNc2ncnc3sc4c(c23)CCNC4)o1 was Pks13 thioesterase: 9.49%; PfKRS1: 0.5747%; LiHisRS: 30%; MtTrpRS: -4.414%. For CC(C)c1ccc(S(=O)(=O)NC2(CC(N)=O)CCC2)cc1 the result was Pks13 thioesterase: 2.536%; PfKRS1: -0.7036%; LiHisRS: 12.9%; MtTrpRS: -0.8974%. For Cc1occc1C(=O)N1CCO[C@H]2[C@H](Oc3cccnc3)CC[C@@H]21 the result was Pks13 thioesterase: -30.41%; PfKRS1: -0.05484%; LiHisRS: -1%; MtTrpRS: 4.928%. O=C([C@H]1COC[C@H]2CN(CC3CCCC3)C[C@H]21)N1CCOCC1 read Pks13 thioesterase: -10.98%; PfKRS1: 14.35%; LiHisRS: 18.97%; MtTrpRS: 2.481%. Result for NC(=O)C1CCCN1c1cc(N2CCc3ccccc3C2)ncn1 (stereo not drawn) was Pks13 thioesterase: -11.91%; PfKRS1: 4.576%; LiHisRS: 14.88%; MtTrpRS: -6.916%. CN(Cc1cc(C2CC2)on1)C(=O)CN1C(=O)OC(C)(C)C1=O read Pks13 thioesterase: 14.98%; PfKRS1: 4.6%; LiHisRS: 9.211%; MtTrpRS: -4.333%.

For CN(C)C(=O)CN1C[C@H]2CCN(C(=O)c3ccncc3)CC[C@H]2S1(=O)=O the result was Pks13 thioesterase: -27.11%; PfKRS1: 1.641%; LiHisRS: 4.425%; MtTrpRS: 1.195%. With c1cn(-c2ccc(CN3CCOC(Cn4cncn4)C3)cc2)cn1 (stereo not drawn) the screen gave Pks13 thioesterase: -9.01%; PfKRS1: 1.342%; LiHisRS: 6.78%; MtTrpRS: -7.908%.

Repeated from the top, 3 entries:

compound	Pks13 thioesterase	PfKRS1	LiHisRS	MtTrpRS
Cc1ccc(NS(=O)(=O)c2ccc(C#N)cc2)c(CN(C)C)c1	-17.52	0.05457	13.7	-1.338
CCS(=O)(=O)NCCNc1c(C#N)cnc2c(F)cc(F)cc12	6.948	2.429	22.37	0.09139
O=C(c1ccsc1)N1C[C@H]2CCC[C@@]2(COCc2cccnc2)C1	-7.277	4.086	13.27	-3.769

The values are deposited in ChEMBL (CHEMBL3988442, “University of Dundee, Small-Polar-MMV Screening Library” (2021)).